The source of these data is PubChem BioAssay AID493014 (National Center for Advancing Translational Sciences (NCATS), 2011).

Some of the results follow. Shown are side measurements of this screen, not its main read-out; they come without a call. Most of these compounds were active or inconclusive in the main read-out, so they are no random draw. The note in brackets gives the kind of curve behind each potency; many fits are weak.

This assay is described as follows: qHTS Assay to Find Inhibitors of Chronic Active B-Cell Receptor Signaling. Conditions: ABC-DLBCL IkBa-CBG/CBR reporter, luminescence ratio (green luciferase fused to IkBa over red control in TMD8 lymphoma cells), 4 h; measured here: CBR red luminescence, cell number. Summed up:
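Cell line TMD8 (human ABC DLBCL), stably expressing tet-inducible CBG68-IkBa fusion and CBR; IMDM/0.5% FBS; cpd up to 46 uM; dox induction, 4 h, 37C/5% CO2; dual luminescence; green/red ratio; MG132 control.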
On the technique in general: In qHTS, concentration-response curves come from the screen itself.
As to `COc1cc(/C=C2/C(=N)N3C(=NC2=O)SN=C3S(C)(=O)=O)ccc1OS(=O)(=O)c1ccccc1`, the concentration at half-maximal activity (AC50) (as a rule, the concentration at which the activity in the assay is half-maximal) was 11.2 µM [rising, partial curve, poor fit]. To `O=C(O)Cn1cc(/C=c2/sc3nc4ccccc4n3c2=O)c2ccccc21` belongs 1.58 µM [falling, full curve]; to `COc1cc(/C=C2\C(=N)N3N=C(S(C)(=O)=O)SC3=NC2=O)cc(OC)c1OCCOc1cccc(C)c1`, 17.8 µM [rising, partial curve, poor fit]. In the case of `O=C(O)COc1ccccc1/C=N/NC(=O)CSc1nnc(SCc2cccc3ccccc23)s1`, the half-maximal activity concentration (AC50) was 3.55 µM [falling, partial curve, poor fit].
